The other results are listed elsewhere or left out.
Target: OsWRKY34 (Oryza sativa, UniProt Q0JBA9 1-250)
Assay: protein-binding microarray (RPBM); PBS, 2% BSA, 51.3 ng/ul salmon testes DNA, 50 uM zinc acetate, 200 nM TF, 25 C, 1 h; high values mean tight binding
Details: protein: recombinant; tags: N-terminal polyhistidine and DsRed monomer fusion (pET32a); label: CyDye5-dUTP incorporated in the synthesized complementary strand; 3' TTTTT single-stranded linker to array surface; dsDNA, one strand shown
How it was run: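 The binding signal is fluorescence intensity per feature, in arbitrary units, read on an Axon 4000B scanner. Polyhistidine- and DsRed-tagged transcription factors (N-terminal fusions) from E. coli BL21-CodonPlus were purified on Ni–NTA and applied at 200 nM for 1 h at 25 °C to a double-stranded, BSA-blocked custom Agilent array in buffer with 50 µM zinc acetate.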

Amino acid sequences for entries named in this document (tags omitted).
UniProt Q0JBA9, entry or part of it: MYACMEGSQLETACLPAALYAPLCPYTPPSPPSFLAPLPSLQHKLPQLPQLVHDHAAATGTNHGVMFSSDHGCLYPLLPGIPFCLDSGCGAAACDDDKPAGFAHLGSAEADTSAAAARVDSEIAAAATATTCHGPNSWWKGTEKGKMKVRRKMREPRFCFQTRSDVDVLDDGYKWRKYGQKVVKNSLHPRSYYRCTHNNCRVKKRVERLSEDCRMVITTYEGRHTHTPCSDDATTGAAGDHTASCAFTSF

Point of comparison: “CGGGAGGGCGAGAGGGTTTTCGGAGCGGGAGGGGAAGATGCGGAGTCACCTAGTGCAG”, binding signal 15200 fluorescence intensity (a.u.). Against it:
- CAGCTCTTAAGTGTTCCTGTCTAGATTGTTGGTGTTGTGGCGGAGTCACCTAGTGCAG — lower, 10100 fluorescence intensity (a.u.)
- AGCCCACCTTAGTACTCCTATGGGCCTCTTCTTATTCCTCCGGAGTCACCTAGTGCAG — lower, 8340 fluorescence intensity (a.u.)
- AATTCCGGTGGTTCACCGCCGGTGAGGGTTGGAGGAGGGGCGGAGTCACCTAGTGCAG — lower, 8160 fluorescence intensity (a.u.)
- CCTATCATGTAAAACTCTTTGGGGTTTGTTGTATTGAATGCGGAGTCACCTAGTGCAG — lower, 8020 fluorescence intensity (a.u.)
- GATTAGGTGGTGTAGTATTTGCGCCCGTAGCTTGTCCGAACGGAGTCACCTAGTGCAG — lower, 9210 fluorescence intensity (a.u.)
- CGTGTGACTGTTGCCGTGATGGTTTTGATGTTTGTTTTGGCGGAGTCACCTAGTGCAG — lower, 9180 fluorescence intensity (a.u.)
- CTCGTTACTCTTCTCTCTCATATTTTATCTTCTCGAAATACGGAGTCACCTAGTGCAG — lower, 8030 fluorescence intensity (a.u.)
- CATCTATATCTTCACATCTCATTTAGTCCTAGCCATTCATCGGAGTCACCTAGTGCAG — lower, 11100 fluorescence intensity (a.u.)
- CTCACGAAACTAATCTGGGCCTTGACACCCACCGACCTACCGGAGTCACCTAGTGCAG — lower, 8900 fluorescence intensity (a.u.)
- GGCTCCGCGCGCGCCGTCTTTCTCATGGTCTTTCTCGATGCGGAGTCACCTAGTGCAG — lower, 8770 fluorescence intensity (a.u.)
- TTATATATCTACTCCTTCGCTTCGTACTATAAAACATTTTCGGAGTCACCTAGTGCAG — lower, 10600 fluorescence intensity (a.u.)
- CGGGGTCATTTCTCAGGTGCAACGAGTTCAACATTTCAACCGGAGTCACCTAGTGCAG — lower, 8580 fluorescence intensity (a.u.)
- GGTCATCAGCTCACCACCTTCTTGGCCTCATCGGAGAATGCGGAGTCACCTAGTGCAG — lower, 8820 fluorescence intensity (a.u.)
- CACATGCTTCACTGTATCTTGAATCTTGTCACTCTCTCATCGGAGTCACCTAGTGCAG — lower, 10200 fluorescence intensity (a.u.)
- ACCTTGACTGGTATTTTTTTTTTGTCTGTTAGTGATGCCACGGAGTCACCTAGTGCAG — lower, 8620 fluorescence intensity (a.u.)
- TCCCGGTTCTTTTTTAACCATAACTATTGTGGTTTTGGGGCGGAGTCACCTAGTGCAG — lower, 10400 fluorescence intensity (a.u.)
- CCACCGCACCGCACCGCACCGCGCCCTCGCCACCACGGCGCGGAGTCACCTAGTGCAG — lower, 8630 fluorescence intensity (a.u.)
- AGGGTTTTTGGTTAGGCGATTTGTTCTGGGCTTTCCGGCCCGGAGTCACCTAGTGCAG — lower, 12200 fluorescence intensity (a.u.)
- TTTATTTTGGTGACTTTTCTATTTAAAATCATTTATTAACCGGAGTCACCTAGTGCAG — lower, 8720 fluorescence intensity (a.u.)
- ACCAAGTTTCATTCTTCGTACGAAACTACTCCATGAATTCCGGAGTCACCTAGTGCAG — lower, 8300 fluorescence intensity (a.u.)
- TCTAGTGCCTCGTAGCCTCGTCGCCGCGCGCGTTTAGTTCCGGAGTCACCTAGTGCAG — lower, 8030 fluorescence intensity (a.u.)
- TCCCACGCCGCCGCCGCCGCCCTCTCTCTCACGCATCCCCCGGAGTCACCTAGTGCAG — lower, 8280 fluorescence intensity (a.u.)
- TTATATTTCTACGTTTTTTTATTACTCTATTCTCTTAATCCGGAGTCACCTAGTGCAG — lower, 9820 fluorescence intensity (a.u.)
- ATAGGGTCCATAATCTTCTAACGCGCTCATTCGTACTCATCGGAGTCACCTAGTGCAG — lower, 8420 fluorescence intensity (a.u.)
- AGTTTAGTCTTATATTTTAAAATGTATTTGTATACCGTATCGGAGTCACCTAGTGCAG — lower, 9200 fluorescence intensity (a.u.)
- GCCACCACCTTCTCATCTGATGTCTTCTCCTTGACCCTTCCGGAGTCACCTAGTGCAG — lower, 8160 fluorescence intensity (a.u.)
- GGGGTTTTTCATCGAAGTTTATTTTTCAACCTTTACTTTTCGGAGTCACCTAGTGCAG — lower, 12700 fluorescence intensity (a.u.)
- CCAACATAATGTACATCGACACGCTTCAGAGCGGCACACTCGGAGTCACCTAGTGCAG — lower, 8460 fluorescence intensity (a.u.)
- TTCACTCTTCACGCCACACTTGGCCGCCGCGTCCATATCTCGGAGTCACCTAGTGCAG — lower, 8690 fluorescence intensity (a.u.)
- TATTTTCTACTTATTTGTTATTTTCTACTTGTATTGAACCCGGAGTCACCTAGTGCAG — lower, 8450 fluorescence intensity (a.u.)
- CTTACTCTCGTCCATGCCACCGCTTATCACTAGCTAGCTACGGAGTCACCTAGTGCAG — lower, 8520 fluorescence intensity (a.u.)
- CAGCATCCATCGCAGCGAGCGACCGTCGGCATCACAAGCCCGGAGTCACCTAGTGCAG — lower, 8120 fluorescence intensity (a.u.)
- TGGGGATGGAGCTTGCCTGGGTGGTGGTGAGGGCGCAGTTCGGAGTCACCTAGTGCAG — lower, 8680 fluorescence intensity (a.u.)
- CGCCGCCCACAGCTTCGCCCGCGCCACCCGTAGCTTCGCCCGGAGTCACCTAGTGCAG — lower, 8420 fluorescence intensity (a.u.)
- CTCCGATCGAGGGGTTGTCGTCTCCGCGCGGTGGCGGGGCCGGAGTCACCTAGTGCAG — lower, 8200 fluorescence intensity (a.u.)
- TCCATCCGGGCCGTTCGCTTTCCGTTTTTATTTTCCTCCTCGGAGTCACCTAGTGCAG — lower, 11200 fluorescence intensity (a.u.)
- AATCCCGAACCTGCGCCGCGTCATTTGAGCAAATTCTGTACGGAGTCACCTAGTGCAG — lower, 8300 fluorescence intensity (a.u.)
- GATTCCTTCCTTTTGTTTTTGGGCCGAATTCTCCTTCTTTCGGAGTCACCTAGTGCAG — lower, 13000 fluorescence intensity (a.u.)
- GAGGCATTACAGTATTATGAATCGATCTTGTGTTATTTTGCGGAGTCACCTAGTGCAG — lower, 8350 fluorescence intensity (a.u.)
- GTAATTTCCCGGGTTTCCCATGCATCTCCTCTCGTCGCTGCGGAGTCACCTAGTGCAG — lower, 10500 fluorescence intensity (a.u.)
- GCGCGCCGCCGCTCATCGCCATCCACCCGCACCCTCCCAACGGAGTCACCTAGTGCAG — lower, 9720 fluorescence intensity (a.u.)
